Measured values from paper PMC4660060, “The molecular architecture of the Dam1 kinetochore complex is defined by cross-linking based structural modelling” (Nature Communications, 2015).
Results are given in words; binding and its absence hold for the method and conditions named. Some results given as binding are weak or reduced against the parent protein; the word gives no strength. Each block holds one binder with its values, some of them ahead of it.

Assays:
Spc19p (yeast) [1] = molecular target: T1, Spc19p (yeast) (UniProt Q03954); assay: cross-linking; Dam1 complex (20 ug) on taxol-stabilised MTs in BRB80, 25 °C, DSS 2 min, quenched, pelleted at 130,000g; MS, Kojak, 1% FDR (458 unique distance restraints within the complex); contacts between subunits read from the integrative model (IMP) built on these cross-links; both purified
T1 sequence: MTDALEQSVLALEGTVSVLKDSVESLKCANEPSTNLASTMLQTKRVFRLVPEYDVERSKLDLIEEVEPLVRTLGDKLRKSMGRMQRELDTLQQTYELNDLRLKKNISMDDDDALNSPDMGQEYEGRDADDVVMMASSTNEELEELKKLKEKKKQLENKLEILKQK

Ask1p (yeast) [2] = molecular target: T2, Ask1p (yeast) (UniProt P35734); assay: as above
T2 sequence: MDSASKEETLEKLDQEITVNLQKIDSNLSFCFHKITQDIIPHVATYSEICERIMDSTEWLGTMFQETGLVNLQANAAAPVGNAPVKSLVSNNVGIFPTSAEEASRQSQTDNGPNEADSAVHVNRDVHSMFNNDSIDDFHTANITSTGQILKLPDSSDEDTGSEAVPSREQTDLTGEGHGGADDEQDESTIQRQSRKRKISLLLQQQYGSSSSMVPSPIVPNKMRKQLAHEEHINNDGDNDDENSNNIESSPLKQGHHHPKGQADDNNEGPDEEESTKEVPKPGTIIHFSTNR

Dad3p (yeast) [3] = molecular target: T3, Dad3p (yeast) (UniProt P69850); assay: as above
T3 sequence: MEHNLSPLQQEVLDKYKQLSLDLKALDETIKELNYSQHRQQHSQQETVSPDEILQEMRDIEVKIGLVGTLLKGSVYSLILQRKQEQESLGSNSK

Dad2p (yeast) [4] = molecular target: T4, Dad2p (yeast) (UniProt P36162); assay: as above
T4 sequence: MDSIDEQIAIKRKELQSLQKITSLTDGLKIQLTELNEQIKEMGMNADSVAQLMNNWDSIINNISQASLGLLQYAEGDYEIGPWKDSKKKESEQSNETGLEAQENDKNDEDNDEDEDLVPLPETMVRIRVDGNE

Dad3p (yeast) [5] = molecular target: T3, Dad3p (yeast); assay: cross-linking; free Dam1 complex without MTs: 40 ug in 500 mM NaCl, 50 mM phosphate pH 6.9, 0.48 mM DSS, 2 min, 25 °C; trypsin, MS, Kojak, 1% FDR (678 unique distance restraints); contacts between subunits read from the integrative model (IMP) built on these cross-links; both purified
Dad2p (yeast) [6] = molecular target: T4, Dad2p (yeast); assay: as above
Spc19p (yeast) [7] = molecular target: T1, Spc19p (yeast); assay: as above
Duo1p (yeast) [8] = molecular target: T5, Duo1p (yeast) (UniProt P53168); assay: cross-linking; Dam1 complex (20 ug) on taxol-stabilised MTs in BRB80, 25 °C, DSS 2 min, quenched, pelleted at 130,000g; MS, Kojak, 1% FDR (458 unique distance restraints within the complex); contacts between subunits read from the integrative model (IMP) built on these cross-links; both purified
T5 sequence: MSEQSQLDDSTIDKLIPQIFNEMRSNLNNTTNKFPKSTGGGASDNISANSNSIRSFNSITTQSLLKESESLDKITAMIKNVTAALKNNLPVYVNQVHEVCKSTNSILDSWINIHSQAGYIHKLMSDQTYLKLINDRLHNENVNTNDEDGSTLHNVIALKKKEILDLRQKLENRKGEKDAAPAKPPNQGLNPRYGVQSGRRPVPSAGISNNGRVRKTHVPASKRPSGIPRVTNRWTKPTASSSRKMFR

Duo1p (yeast) [9] = molecular target: T5, Duo1p (yeast); assay: cross-linking; free Dam1 complex without MTs: 40 ug in 500 mM NaCl, 50 mM phosphate pH 6.9, 0.48 mM DSS, 2 min, 25 °C; trypsin, MS, Kojak, 1% FDR (678 unique distance restraints); contacts between subunits read from the integrative model (IMP) built on these cross-links; both purified
Ask1p (yeast) [10] = molecular target: T2, Ask1p (yeast); assay: as above

binding (Spc19p (yeast) [1]): binds
binding (Ask1p (yeast) [2]): binds
B1: Duo1p (protein, UniProt P53168 1-247)
chain: T5 sequence

binding (Dad3p (yeast) [3]): binds
binding (Dad2p (yeast) [4]): binds
binding (Spc19p (yeast) [1]): binds
binding (Dad3p (yeast) [5]): binds
binding (Dad2p (yeast) [6]): binds
binding (Spc19p (yeast) [7]): binds
B2: Spc34p (protein, UniProt P36131 1-295)
chain: MGESLDRCIDDINRAVDSMSTLYFKPPGIFHNAILQGASNKASIRKDITRLIKDCNHDEAYLLFKVNPEKQSVSRRDGKEGVFDYVIKRDTDMKRNRRLGRPGEKPIIHVPKEVYLNKDRLDLNNKRRRTATTSGGGLNGFIFDTDLIGSSVISNSSSGTFKALSAVFKDDPQIQRLLYALENGSVLMEEESNNQRRKTIFVEDFPTDLILKVMAEVTDLWPLTEFKQDYDQLYHNYEQLSSKLRFIKKEVLLQDDRLKTMSQYHPSSSHDVAKIIRKEKDEIRRLEMEIANLQE

binding (Duo1p (yeast) [8]): binds
binding (Ask1p (yeast) [2]): binds
binding (Duo1p (yeast) [9]): binds
binding (Ask1p (yeast) [10]): binds
B3: Dam1p (protein, UniProt P53267 1-343)
chain: MSEDKAKLGTTRSATEYRLSIGSAPTSRRSSMGESSSLMKFADQEGLTSSVGEYNENTIQQLLLPKIRELSDSIITLDSNFTRLNFIHESLADLNESLGSLLYGIMSNSWCVEFSQAPHDIQDDLIAIKQLKSLEDEKNNLVMELSNMERGIKRKKDEQGENDLAKASQNKQFNQPLFPSSQVRKYRSYDNRDKRKPSKIGNNLQVENEEDYEDDTSSEASFVLNPTNIGMSKSSQGHVTKTTRLNNNTNSKLRRKSILHTIRNSIASGADLPIENDNVVNLGDLHPNNRISLGSGAARVVNGPVTKNRNSMFSGRAERKPTESRHSVAKKTEKKINTRPPFR
